The values below come from patent US20240368086A1, “COMPOUND, RUBBER BLEND CONTAINING THE COMPOUND, VEHICLE TIRE COMPRISING THE RUBBER BLEND IN AT LEAST ONE COMPONENT, PROCESS FOR PRODUCING THE COMPOUND, AND USE OF THE COMPOUND AS AN AGEING PROTECTANT AND/OR ANTIOZONANT AND/OR DYE” (Continental Reifen Deutschland GmbH, priority 2021, published 2024).

A short description of the data set: Measurement of oxidation induction time (OIT) by DSC. Conditions: substance together with polymer LIR-50 (Kuraray), isothermal 180° C., switch from N2 to O2 atmosphere (50 mL/min), oxidation peak by DSC; measurement accuracy ± 10 minutes. (DSC measures the heat that a sample takes up or gives off during a temperature scan.)

`CC(C)CC(C)Nc1ccc(Nc2ccccc2)cc1` (centres unmarked) [6-PPD, N-(1,3-dimethylbutyl)-N′-phenyl-p-phenylenediamine]: the “Time (time in minutes to oxidation, oxidation induction time)” value came out at 116 ± 10 min.

Regarding `CC(C)CC(C)Nc1ccc2[nH]c3c(c(=O)c2c1)CCCC3` (centres unmarked) [7-((4-methylpentan-2-yl)amino)-1,3,4,10-tetrahydroacridin-9(2H)-one], the “Time (time in minutes to oxidation, oxidation induction time)” value is given as 212 ± 10 min.
